Reference: US20040077879A1 (priority 2002, published 2004)
Some peptides are written in HELM: one residue between dots, names in brackets for other building blocks, links after the first $.

Test: general procedure: peptide synthesis; polystyrene resin (Novabiochem); HMPA, HMBA, RINK, silylalkyl or 4-sulfamylbenzoyl linkers
Conditions: whole synthesis

In the case of “PEPTIDE1{Y.[pro4(2S4S)].[pro4(2S4S)].[pro4(2S4S)].[am]}$PEPTIDE1,PEPTIDE1,1:R1-2:R3|PEPTIDE1,PEPTIDE1,2:R4-3:R3|PEPTIDE1,PEPTIDE1,3:R4-4:R3$$$V2.0”, the crude mass is reported as 5 mg and the crude yield (based on resin loading, scale of the general procedure 20 umol) is reported as “˜15% yield”.
